Where two headings read alike, the source gives them in different places. Some of these results come from one statement about several compounds together. Some compounds share one range, which may span the group rather than tell each member.
Molecular target: platelet ADP receptors (Homo sapiens, UniProt Q9H244)
Assay: Inhibition of [^3H]2-MeS-ADP binding to platelets
Settings: read-out: IC50s of binding of 1 nM [^3H]2-MeS-ADP to human platelets, span over the series
Method: All steps were performed at room temperature unless indicated otherwise.

By UniProt entry, the sequences of proteins in these tests, tags left out. Where a name states a change or a piece, a line headed by the entry shows the natural chain unless it says otherwise.
UniProt Q9H244: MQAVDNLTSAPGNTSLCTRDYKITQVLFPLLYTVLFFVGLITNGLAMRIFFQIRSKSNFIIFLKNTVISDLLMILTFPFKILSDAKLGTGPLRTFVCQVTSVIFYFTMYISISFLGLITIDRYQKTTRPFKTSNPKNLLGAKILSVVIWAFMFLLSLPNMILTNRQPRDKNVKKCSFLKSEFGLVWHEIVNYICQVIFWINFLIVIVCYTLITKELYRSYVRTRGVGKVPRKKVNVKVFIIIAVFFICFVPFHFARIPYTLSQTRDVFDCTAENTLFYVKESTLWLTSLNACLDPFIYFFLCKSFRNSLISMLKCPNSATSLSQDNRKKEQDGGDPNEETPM

`O=C(CS(=O)(=O)Nc1nc2ccccc2s1)C1=C(O)N2C(=NS1(=O)=O)Sc1ccccc12` [Compound 2, N^1-(1,3-benzothiazol-2-yl)-2-(4-hydroxy-2,2-dioxo-2H-2l^6-benzo[4,5][1,3]thiazolo[2,3-c][1,2,4]thiadiazin-3-yl)-2-oxo-1-ethanesulfonamide] gave an IC50 of 170 to 37000 nM.
`O=C(CS(=O)(=O)Nc1nc2ccc(Cl)cc2s1)C1=C(O)N2C(=NS1(=O)=O)Sc1cc(Cl)ccc12` [Compound 4, N^1-(6-Chloro-1,3-benzothiazol-2-yl)-2-(8-chloro-4-hydroxy-2,2-dioxo-2H-2l^6-benzo[4,5][1,3]thiazolo[2,3-c][1,2,4]thiadiazin-3-yl)-2-oxo-1-ethanesulfonamide] showed an IC50 of 170 to 37000 nM.
`CS(=O)(=O)c1ccc2c(c1)SC1=NS(=O)(=O)C(C(=O)CS(=O)(=O)Nc3nc4ccc(S(C)(=O)=O)cc4s3)=C(O)N12` [Compound 5, N^1-(6-Methylsulfonyl-1,3-benzothiazol-2-yl)-2-(8-methylsulfonyl-4-hydroxy-2,2-dioxo-2H-2l^6-benzo[4,5][1,3]thiazolo[2,3-c][1,2,4]thiadiazin-3-yl)-2-oxo-1-ethanesulfonamide] gave an IC50 of 170 to 37000 nM.
With `O=C(CS(=O)(=O)Nc1nc2ccc([N+](=O)[O-])cc2s1)C1=C(O)N2C(=NS1(=O)=O)Sc1cc([N+](=O)[O-])ccc12` [Compound 6, N^1-(6-Nitro-1,3-benzothiazol-2-yl)-2-(8-nitro-4-hydroxy-2,2-dioxo2H-2l^6-benzo[4,5][1,3]thiazolo[2,3-c][1,2,4]thiadiazin-3-yl)-2-oxo-1-ethanesulfonamide] the IC50 (outdated platelets, units given with the value (nM to μM)) was 170 to 37000 nM.
`COc1ccc2c(c1)SC1=NS(=O)(=O)C(C(=O)CS(=O)(=O)Nc3nc4ccc(OC)cc4s3)=C(O)N12` [Compound 8, N^1-(6-Methoxy-1,3-benzothiazol-2-yl)-2-(8-methoxy-4-hydroxy-2,2-dioxo-2H-2l^6-benzo[4,5][1,3]thiazolo[2,3-c][1,2,4]thiadiazin-3-yl)-2-oxo-1-ethanesulfonamide] was tested, and the IC50 was 170 to 37000 nM.

Source: patent US6667306B1, “Platelet ADP receptor inhibitors” (Millennium Pharmaceuticals, Inc., priority 1998, dated 2003)
